# According to article PMC10762002:
# These are yes or no findings as the source states them, for the method shown. Binding seen in cells or lysates may run through a third protein. Here binding means that the protein was enriched with, or labelled near, the bait; the list need not be complete.
# B1: endogenous Perilipin 1 (Plin1) (protein, UniProt Q8CGN5 1-517)
# chain: MSMNKGPTLLDGDLPEQENVLQRVLQLPVVSGTCECFQKTYNSTKEAHPLVASVCNAYEKGVQGASNLAAWSMEPVVRRLSTQFTAANELACRGLDHLEEKIPALQYPPEKIASELKGTISTRLRSARNSISVPIASTSDKVLGATLAGCELALGMAKETAEYAANTRVGRLASGGADLALGSIEKVVEFLLPPDKESAPSSGRQRTQKAPKAKPSLVRRVSTLANTLSRHTMQTTAWALKQGHSLAMWIPGVAPLSSLAQWGASAAMQVVSRRQSEVRVPWLHNLAASQDESHDDQTDTEGEETDDEEEEEESEAEENVLREVTALPNPRGLLGGVVHTVQNTLRNTISAVTWAPAAVLGTVGRILHLTPAQAVSSTKGRAMSLSDALKGVTDNVVDTVVHYVPLPRLSLMEPESEFRDIDNPSAEAERKGSGARPASPESTPRPGQPRGSLRSVRGLSAPSCPGLDDKTEASARPGFLAMPREKPARRVSDSFFRPSVMEPILGRAQYSQLRKKS
# Assays:
# [1] = target: HA-tagged ApoL6 (adipoQ-ApoL6 TG mice) (mouse); test: affinity purification with mass spectrometry; lysates cross-linked with NHS-Diazirine (SDA); lysis buffer 10 mM HEPES, 1 mM EDTA, pH 7.4, 1% DDM; IP with HA magnetic beads from LD-associated proteins of adipoQ-ApoL6 TG WAT or lysates of 3T3-L1 adipocytes overexpressing ApoL6-HA; MS of the purified proteins
# [2] = target: ApoL6-HA overexpressed in differentiated 3T3-L1 adipocytes (mouse); test: as above
binder,measurement,setting,value
B1,binding,[1],binds
same,binding,[2],binds
